The results in this text go back to PMC8864472.

Chains of the proteins cited; added tags and fusions are not shown. Residues count along the entry.
UniProt Q8IY17: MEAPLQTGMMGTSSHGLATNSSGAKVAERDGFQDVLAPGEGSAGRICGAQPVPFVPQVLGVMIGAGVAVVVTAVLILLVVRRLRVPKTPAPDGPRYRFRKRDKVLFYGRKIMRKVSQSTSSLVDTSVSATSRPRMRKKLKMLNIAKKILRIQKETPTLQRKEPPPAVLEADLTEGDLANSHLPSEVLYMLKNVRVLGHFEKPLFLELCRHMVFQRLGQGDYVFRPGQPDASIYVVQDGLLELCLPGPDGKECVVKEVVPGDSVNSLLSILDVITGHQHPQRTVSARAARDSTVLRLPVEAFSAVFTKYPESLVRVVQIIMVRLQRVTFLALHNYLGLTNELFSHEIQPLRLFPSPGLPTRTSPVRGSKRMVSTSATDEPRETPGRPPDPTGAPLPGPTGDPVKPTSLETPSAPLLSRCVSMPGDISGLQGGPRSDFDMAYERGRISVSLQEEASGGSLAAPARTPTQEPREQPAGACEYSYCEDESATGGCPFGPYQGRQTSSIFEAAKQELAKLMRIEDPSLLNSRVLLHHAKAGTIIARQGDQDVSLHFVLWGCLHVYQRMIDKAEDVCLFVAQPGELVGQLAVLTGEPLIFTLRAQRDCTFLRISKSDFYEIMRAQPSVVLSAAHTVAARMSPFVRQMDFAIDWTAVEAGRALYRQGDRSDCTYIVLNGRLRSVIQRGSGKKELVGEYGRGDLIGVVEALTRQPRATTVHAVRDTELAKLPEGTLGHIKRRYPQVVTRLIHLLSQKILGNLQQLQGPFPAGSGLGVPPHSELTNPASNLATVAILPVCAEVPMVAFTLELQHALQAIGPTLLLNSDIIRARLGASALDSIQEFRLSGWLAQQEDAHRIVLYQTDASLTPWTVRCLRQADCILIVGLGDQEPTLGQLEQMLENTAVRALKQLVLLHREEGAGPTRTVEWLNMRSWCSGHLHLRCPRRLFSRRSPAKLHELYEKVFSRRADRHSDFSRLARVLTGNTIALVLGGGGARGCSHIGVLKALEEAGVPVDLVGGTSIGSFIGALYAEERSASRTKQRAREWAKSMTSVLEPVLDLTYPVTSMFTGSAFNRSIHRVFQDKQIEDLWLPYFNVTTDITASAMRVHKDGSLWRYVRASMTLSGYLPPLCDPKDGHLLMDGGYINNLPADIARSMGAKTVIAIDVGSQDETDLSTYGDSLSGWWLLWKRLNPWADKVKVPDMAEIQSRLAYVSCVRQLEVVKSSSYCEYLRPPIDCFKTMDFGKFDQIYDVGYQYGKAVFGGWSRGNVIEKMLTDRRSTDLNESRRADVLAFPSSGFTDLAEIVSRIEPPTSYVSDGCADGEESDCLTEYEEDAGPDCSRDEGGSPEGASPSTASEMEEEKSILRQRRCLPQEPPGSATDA
UniProt P07237, residues 18-508: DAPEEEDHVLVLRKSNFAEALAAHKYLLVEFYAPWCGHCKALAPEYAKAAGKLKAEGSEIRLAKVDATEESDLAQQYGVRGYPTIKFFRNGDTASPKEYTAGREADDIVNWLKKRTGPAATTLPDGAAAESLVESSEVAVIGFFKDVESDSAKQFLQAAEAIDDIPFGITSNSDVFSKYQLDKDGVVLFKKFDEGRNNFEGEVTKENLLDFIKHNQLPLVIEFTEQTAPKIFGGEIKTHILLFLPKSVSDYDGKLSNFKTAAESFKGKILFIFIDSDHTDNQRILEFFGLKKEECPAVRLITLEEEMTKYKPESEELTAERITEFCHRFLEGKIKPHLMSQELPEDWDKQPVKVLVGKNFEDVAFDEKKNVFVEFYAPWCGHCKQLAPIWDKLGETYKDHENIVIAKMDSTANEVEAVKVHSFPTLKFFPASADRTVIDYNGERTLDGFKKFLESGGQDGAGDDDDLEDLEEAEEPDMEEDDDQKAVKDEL
UniProt P11021, residues 19-654: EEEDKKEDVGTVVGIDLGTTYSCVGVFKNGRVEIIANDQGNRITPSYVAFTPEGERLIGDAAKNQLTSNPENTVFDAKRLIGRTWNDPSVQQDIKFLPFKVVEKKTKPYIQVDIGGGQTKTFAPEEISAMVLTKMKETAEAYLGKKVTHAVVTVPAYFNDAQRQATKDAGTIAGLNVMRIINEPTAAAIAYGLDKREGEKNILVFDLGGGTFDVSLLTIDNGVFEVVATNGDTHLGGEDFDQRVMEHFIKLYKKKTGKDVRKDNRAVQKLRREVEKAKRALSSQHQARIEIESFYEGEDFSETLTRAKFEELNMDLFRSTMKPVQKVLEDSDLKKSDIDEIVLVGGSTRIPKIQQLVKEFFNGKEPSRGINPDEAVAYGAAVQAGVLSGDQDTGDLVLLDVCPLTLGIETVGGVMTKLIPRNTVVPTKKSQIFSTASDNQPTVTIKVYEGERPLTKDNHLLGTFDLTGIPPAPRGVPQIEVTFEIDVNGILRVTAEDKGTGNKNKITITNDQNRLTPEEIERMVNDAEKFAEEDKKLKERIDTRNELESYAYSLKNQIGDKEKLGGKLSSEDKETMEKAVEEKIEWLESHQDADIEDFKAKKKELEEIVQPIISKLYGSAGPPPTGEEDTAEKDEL
UniProt P08754: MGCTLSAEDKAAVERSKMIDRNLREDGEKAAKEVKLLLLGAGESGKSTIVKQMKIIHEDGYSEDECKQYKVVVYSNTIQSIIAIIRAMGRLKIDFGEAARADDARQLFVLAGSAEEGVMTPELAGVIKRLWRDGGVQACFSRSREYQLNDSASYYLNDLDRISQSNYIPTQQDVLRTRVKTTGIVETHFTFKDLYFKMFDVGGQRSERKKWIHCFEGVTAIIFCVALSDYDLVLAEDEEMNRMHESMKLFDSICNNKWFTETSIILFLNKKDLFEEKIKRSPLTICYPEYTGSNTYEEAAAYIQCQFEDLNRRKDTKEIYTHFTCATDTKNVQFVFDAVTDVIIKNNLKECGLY

No constants are given. Whether binding was seen depends on the method and setting. In cells and extracts the contact can be indirect. Some results given as binding are weak or reduced against the parent protein; the word gives no strength. For some assays here: Tags and fused reporters may be left off the sequences shown.

Holding throughout (assay): pull-down; HEK293T cells transfected with constructs of both tagged proteins; pull-down with S protein beads; Western blot
On the technique in general: A western blot detects proteins with antibodies after separation by electrophoresis.

The target of one experiment is T1, PLD3 (human) (UniProt Q8IV08).
T1 sequence: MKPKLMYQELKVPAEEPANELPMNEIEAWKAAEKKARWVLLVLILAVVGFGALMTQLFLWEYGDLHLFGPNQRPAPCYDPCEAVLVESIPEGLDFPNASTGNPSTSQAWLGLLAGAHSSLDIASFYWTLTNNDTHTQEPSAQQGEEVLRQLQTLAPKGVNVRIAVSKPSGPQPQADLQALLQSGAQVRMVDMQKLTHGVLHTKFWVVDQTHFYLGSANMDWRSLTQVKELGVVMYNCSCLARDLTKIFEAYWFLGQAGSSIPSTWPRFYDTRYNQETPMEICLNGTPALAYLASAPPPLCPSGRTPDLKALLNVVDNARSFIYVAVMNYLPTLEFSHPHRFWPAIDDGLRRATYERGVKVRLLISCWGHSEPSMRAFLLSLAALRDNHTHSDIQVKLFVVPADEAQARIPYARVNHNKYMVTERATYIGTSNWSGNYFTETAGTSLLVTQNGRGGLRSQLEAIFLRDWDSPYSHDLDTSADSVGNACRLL

The target of another experiment is T2, PLD6 (human) (UniProt Q8N2A8).
T2 sequence: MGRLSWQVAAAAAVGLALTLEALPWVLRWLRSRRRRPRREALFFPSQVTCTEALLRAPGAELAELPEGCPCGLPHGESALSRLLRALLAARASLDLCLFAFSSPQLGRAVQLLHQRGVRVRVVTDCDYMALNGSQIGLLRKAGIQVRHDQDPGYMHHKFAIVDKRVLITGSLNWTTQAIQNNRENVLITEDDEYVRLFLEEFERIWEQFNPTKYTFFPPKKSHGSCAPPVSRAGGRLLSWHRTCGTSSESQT

The target in the next experiment is T3, SFB-tagged PLD5 (human) (UniProt Q8N7P1).
T3 sequence: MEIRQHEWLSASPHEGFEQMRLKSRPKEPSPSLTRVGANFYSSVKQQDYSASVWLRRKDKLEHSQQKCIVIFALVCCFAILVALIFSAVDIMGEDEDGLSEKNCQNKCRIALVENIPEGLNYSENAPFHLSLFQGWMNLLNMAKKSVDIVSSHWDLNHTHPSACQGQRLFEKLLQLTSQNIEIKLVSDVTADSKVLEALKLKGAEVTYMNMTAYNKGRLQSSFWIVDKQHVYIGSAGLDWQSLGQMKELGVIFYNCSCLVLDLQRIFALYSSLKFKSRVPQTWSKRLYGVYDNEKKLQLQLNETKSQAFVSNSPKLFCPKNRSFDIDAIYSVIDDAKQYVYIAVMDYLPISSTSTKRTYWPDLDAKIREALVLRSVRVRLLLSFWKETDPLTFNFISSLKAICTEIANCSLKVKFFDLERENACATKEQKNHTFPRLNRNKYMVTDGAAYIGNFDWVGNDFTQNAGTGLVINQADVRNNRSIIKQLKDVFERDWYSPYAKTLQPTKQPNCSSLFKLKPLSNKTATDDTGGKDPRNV

For the next experiment, the target named is T4, PLD4 (human) (UniProt Q96BZ4).
T4 sequence: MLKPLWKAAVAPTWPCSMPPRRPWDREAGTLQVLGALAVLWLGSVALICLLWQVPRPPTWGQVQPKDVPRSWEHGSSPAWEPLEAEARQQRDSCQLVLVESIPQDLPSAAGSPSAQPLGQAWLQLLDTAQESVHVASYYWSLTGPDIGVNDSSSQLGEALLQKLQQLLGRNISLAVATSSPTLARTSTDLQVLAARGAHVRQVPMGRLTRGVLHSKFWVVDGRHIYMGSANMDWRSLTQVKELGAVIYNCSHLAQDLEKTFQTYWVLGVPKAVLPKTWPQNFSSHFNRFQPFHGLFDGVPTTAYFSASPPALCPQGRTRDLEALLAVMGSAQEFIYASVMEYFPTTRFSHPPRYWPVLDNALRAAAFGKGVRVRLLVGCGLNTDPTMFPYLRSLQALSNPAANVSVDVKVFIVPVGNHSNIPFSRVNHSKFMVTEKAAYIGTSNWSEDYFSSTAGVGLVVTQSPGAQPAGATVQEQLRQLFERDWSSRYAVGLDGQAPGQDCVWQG

On to PNPLA6 (from UniProt Q8IY17 1-1375), for which the binding result with PLD3 (human) is listed as “binds”.

With P4HB (from UniProt P07237 18-508), the binding entry in the experiment with PLD6 (human) is “binds”.

As to HSPA5 (from UniProt P11021 19-654), the binding entry with PLD6 (human) is “binds”.

As to “HA-tagged GNAI3 (from UniProt P08754 1-354)”, in the experiment with SFB-tagged PLD5 (human), the binding result is reported as “binds”.

B1: HA-tagged PCCB (protein, UniProt P05166 29-539)
chain: CSQATSVNERIENKRRTALLGGGQRRIDAQHKRGKLTARERISLLLDPGSFVESDMFVEHRCADFGMAADKNKFPGDSVVTGRGRINGRLVYVFSQDFTVFGGSLSGAHAQKICKIMDQAITVGAPVIGLNDSGGARIQEGVESLAGYADIFLRNVTASGVIPQISLIMGPCAGGAVYSPALTDFTFMVKDTSYLFITGPDVVKSVTNEDVTQEELGGAKTHTTMSGVAHRAFENDVDALCNLRDFFNYLPLSSQDPAPVRECHDPSDRLVPELDTIVPLESTKAYNMVDIIHSVVDEREFFEIMPNYAKNIIVGFARMNGRTVGIVGNQPKVASGCLDINSSVKGARFVRFCDAFNIPLITFVDVPGFLPGTAQEYGGIIRHGAKLLYAFAEATVPKVTVITRKAYGGAYDVMSSKHLCGDTNYAWPTAEIAVMGAKGAVEIIFKGHENVEAAQAEYIEKFANPFPAAVRGFVDDIIQPSSTRARICCDLDVLASKKVQRPWRKHANIPL
Turning to B1, in the experiment with SFB-tagged PLD5 (human), the binding result is recorded as “binds”.

B2: PLD3 (protein, UniProt Q8IV08 1-490)
chain: MKPKLMYQELKVPAEEPANELPMNEIEAWKAAEKKARWVLLVLILAVVGFGALMTQLFLWEYGDLHLFGPNQRPAPCYDPCEAVLVESIPEGLDFPNASTGNPSTSQAWLGLLAGAHSSLDIASFYWTLTNNDTHTQEPSAQQGEEVLRQLQTLAPKGVNVRIAVSKPSGPQPQADLQALLQSGAQVRMVDMQKLTHGVLHTKFWVVDQTHFYLGSANMDWRSLTQVKELGVVMYNCSCLARDLTKIFEAYWFLGQAGSSIPSTWPRFYDTRYNQETPMEICLNGTPALAYLASAPPPLCPSGRTPDLKALLNVVDNARSFIYVAVMNYLPTLEFSHPHRFWPAIDDGLRRATYERGVKVRLLISCWGHSEPSMRAFLLSLAALRDNHTHSDIQVKLFVVPADEAQARIPYARVNHNKYMVTERATYIGTSNWSGNYFTETAGTSLLVTQNGRGGLRSQLEAIFLRDWDSPYSHDLDTSADSVGNACRLL
Turning to B2, the binding result with PLD3 (human) is reported as “binds”.

B3: TMX3 (protein, UniProt Q96JJ7 25-454)
chain: KGFVEDLDESFKENRNDDIWLVDFYAPWCGHCKKLEPIWNEVGLEMKSIGSPVKVGKMDATSYSSIASEFGVRGYPTIKLLKGDLAYNYRGPRTKDDIIEFAHRVSGALIRPLPSQQMFEHMQKRHRVFFVYVGGESPLKEKYIDAASELIVYTYFFSASEEVVPEYVTLKEMPAVLVFKDETYFVYDEYEDGDLSSWINRERFQNYLAMDGFLLYELGDTGKLVALAVIDEKNTSVEHTRLKSIIQEVARDYRDLFHRDFQFGHMDGNDYINTLLMDELTVPTVVVLNTSNQQYFLLDRQIKNVEDMVQFINNILDGTVEAQGGDSILQRLKRIVFDAKSTIVSIFKSSPLMGCFLFGLPLGVISIMCYGIYTADTDGGYIEERYEVSKSENENQEQIEESKEQQEPSSGGSVVPTVQEPKDVLEKKKD
Consider B3, for which the binding entry in the experiment with PLD4 (human) is listed as “binds”.

B4: ERLEC1 (protein, UniProt Q96DZ1 34-483)
chain: LPQLSDDIPFRVNWPGTEFSLPTTGVLYKEDNYVIMTTAHKEKYKCILPLVTSGDEEEEKDYKGPNPRELLEPLFKQSSCSYRIESYWTYEVCHGKHIRQYHEEKETGQKINIHEYYLGNMLAKNLLFEKEREAEEKEKSNEIPTKNIEGQMTPYYPVGMGNGTPCSLKQNRPRSSTVMYICHPESKHEILSVAEVTTCEYEVVILTPLLCSHPKYRFRASPVNDIFCQSLPGSPFKPLTLRQLEQQEEILRVPFRRNKEEDLQSTKEERFPAIHKSIAIGSQPVLTVGTTHISKLTDDQLIKEFLSGSYCFRGGVGWWKYEFCYGKHVHQYHEDKDSGKTSVVVGTWNQEEHIEWAKKNTARAYHLQDDGTQTVRMVSHFYGNGDICDITDKPRQVTVKLKCKESDSPHAVTVYMLEPHSCQYILGVESPVICKILDTADENGLLSLPN
B4: the binding result with PLD6 (human) is recorded as “binds”.

B5: HA-tagged TTC1 (protein, UniProt Q99614 1-292)
chain: MGEKSENCGVPEDLLNGLKVTDTQEAECAGPPVPDPKNQHSQSKLLRDDEAHLQEDQGEEECFHDCSASFEEEPGADKVENKSNEDVNSSELDEEYLIELEKNMSDEEKQKRREESTRLKEEGNEQFKKGDYIEAESSYSRALEMCPSCFQKERSILFSNRAAARMKQDKKEMAINDCSKAIQLNPSYIRAILRRAELYEKTDKLDEALEDYKSILEKDPSIHQAREACMRLPKQIEERNERLKEEMLGKLKDLGNLVLRPFGLSTENFQIKQDSSTGSYSINFVQNPNNNR
As for B5, the binding entry with SFB-tagged PLD5 (human) is “binds”.

B6: ACOT9 (protein, UniProt Q9Y305 22-439)
chain: LTQGPQNPKKQGIFHIHEVRDKLREIVGASTNWRDHVKAMEERKLLHSFLAKSQDGLPPRRMKDSYIEVLLPLGSEPELREKYLTVQNTVRFGRILEDLDSLGVLICYMHNKIHSAKMSPLSIVTALVDKIDMCKKSLSPEQDIKFSGHVSWVGKTSMEVKMQMFQLHGDEFCPVLDATFVMVARDSENKGPAFVNPLIPESPEEEELFRQGELNKGRRIAFSSTSLLKMAPSAEERTTIHEMFLSTLDPKTISFRSRVLPSNAVWMENSKLKSLEICHPQERNIFNRIFGGFLMRKAYELAWATACSFGGSRPFVVAVDDIMFQKPVEVGSLLFLSSQVCFTQNNYIQVRVHSEVASLQEKQHTTTNVFHFTFMSEKEVPLVFPKTYGESMLYLDGQRHFNSMSGPATLRKDYLVEP
Turning to B6, in the experiment with PLD6 (human), the binding entry is given as “binds”.

B7: HA-tagged UNC45A (protein, UniProt Q9H3U1 1-944)
chain: MTVSGPGTPEPRPATPGASSVEQLRKEGNELFKCGDYGGALAAYTQALGLDATPQDQAVLHRNRAACHLKLEDYDKAETEASKAIEKDGGDVKALYRRSQALEKLGRLDQAVLDLQRCVSLEPKNKVFQEALRNIGGQIQEKVRYMSSTDAKVEQMFQILLDPEEKGTEKKQKASQNLVVLAREDAGAEKIFRSNGVQLLQRLLDMGETDLMLAALRTLVGICSEHQSRTVATLSILGTRRVVSILGVESQAVSLAACHLLQVMFDALKEGVKKGFRGKEGAIIVDPARELKVLISNLLDLLTEVGVSGQGRDNALTLLIKAVPRKSLKDPNNSLTLWVIDQGLKKILEVGGSLQDPPGELAVTANSRMSASILLSKLFDDLKCDAERENFHRLCENYIKSWFEGQGLAGKLRAIQTVSCLLQGPCDAGNRALELSGVMESVIALCASEQEEEQLVAVEALIHAAGKAKRASFITANGVSLLKDLYKCSEKDSIRIRALVGLCKLGSAGGTDFSMKQFAEGSTLKLAKQCRKWLCNDQIDAGTRRWAVEGLAYLTFDADVKEEFVEDAAALKALFQLSRLEERSVLFAVASALVNCTNSYDYEEPDPKMVELAKYAKQHVPEQHPKDKPSFVRARVKKLLAAGVVSAMVCMVKTESPVLTSSCRELLSRVFLALVEEVEDRGTVVAQGGGRALIPLALEGTDVGQTKAAQALAKLTITSNPEMTFPGERIYEVVRPLVSLLHLNCSGLQNFEALMALTNLAGISERLRQKILKEKAVPMIEGYMFEEHEMIRRAATECMCNLAMSKEVQDLFEAQGNDRLKLLVLYSGEDDELLQRAAAGGLAMLTSMRPTLCSRIPQVTTHWLEILQALLLSSNQELQHRGAVVVLNMVEASREIASTLMESEMMEILSVLAKGDHSPVTRAAAACLDKAVEYGLIQPNQDGE
As for B7, the binding result with SFB-tagged PLD5 (human) was “binds”.
